Data taken from the supplement of paper PMC12823440, “Inhibitors supercharge kinase turnover through native proteolytic circuits” (Nature, 2025).
Counter-ions that a name gives are not always drawn. Some of the results follow. Hit calls seldom repeat between salt and free forms of one compound.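 Kinases were expressed as nanoluciferase fusions in K562 cells and luminescence was read every 4 h between 2 and 18 h as percent of control, DMSO set to 100% and a positive control to 0%. A time point counts as decreased when the signal drops significantly (2 sigma). The hit call is the authors' own, does not follow from the count of time points alone, and its rule is not shown.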

Sequences of proteins named here, by UniProt entry; tags and fusion partners are left off. A change or cut given only in a name is not applied to a line headed by its entry.
UniProt P07947, whole entry, looked up: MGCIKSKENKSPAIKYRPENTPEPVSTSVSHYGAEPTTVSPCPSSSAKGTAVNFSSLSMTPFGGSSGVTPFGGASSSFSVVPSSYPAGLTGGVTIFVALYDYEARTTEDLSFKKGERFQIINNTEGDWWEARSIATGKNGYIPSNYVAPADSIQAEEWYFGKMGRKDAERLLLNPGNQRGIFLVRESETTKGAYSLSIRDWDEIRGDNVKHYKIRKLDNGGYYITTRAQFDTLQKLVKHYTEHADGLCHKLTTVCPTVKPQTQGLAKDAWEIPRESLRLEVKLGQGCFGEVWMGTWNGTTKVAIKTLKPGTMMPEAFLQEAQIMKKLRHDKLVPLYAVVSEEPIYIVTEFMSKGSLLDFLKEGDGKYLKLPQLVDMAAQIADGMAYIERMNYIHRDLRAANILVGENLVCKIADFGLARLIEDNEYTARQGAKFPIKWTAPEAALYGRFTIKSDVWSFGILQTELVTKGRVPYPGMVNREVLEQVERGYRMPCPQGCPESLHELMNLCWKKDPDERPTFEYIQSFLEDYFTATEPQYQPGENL
UniProt P43403: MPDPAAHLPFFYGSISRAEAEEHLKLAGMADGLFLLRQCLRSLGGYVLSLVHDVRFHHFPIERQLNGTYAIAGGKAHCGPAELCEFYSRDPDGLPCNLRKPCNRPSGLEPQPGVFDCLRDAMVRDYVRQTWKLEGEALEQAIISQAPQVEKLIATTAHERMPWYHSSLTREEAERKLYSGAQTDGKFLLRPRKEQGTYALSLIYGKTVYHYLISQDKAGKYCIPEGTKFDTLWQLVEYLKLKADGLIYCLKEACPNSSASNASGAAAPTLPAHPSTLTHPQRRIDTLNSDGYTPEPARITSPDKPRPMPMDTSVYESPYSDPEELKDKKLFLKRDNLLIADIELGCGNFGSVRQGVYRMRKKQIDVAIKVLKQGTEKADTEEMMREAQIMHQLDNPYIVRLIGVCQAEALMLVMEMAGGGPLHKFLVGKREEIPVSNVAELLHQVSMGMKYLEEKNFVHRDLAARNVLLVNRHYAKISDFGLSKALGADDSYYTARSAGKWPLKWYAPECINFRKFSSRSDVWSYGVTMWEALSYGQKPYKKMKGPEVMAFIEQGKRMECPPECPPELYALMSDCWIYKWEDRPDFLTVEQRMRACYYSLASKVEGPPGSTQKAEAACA
UniProt P11802: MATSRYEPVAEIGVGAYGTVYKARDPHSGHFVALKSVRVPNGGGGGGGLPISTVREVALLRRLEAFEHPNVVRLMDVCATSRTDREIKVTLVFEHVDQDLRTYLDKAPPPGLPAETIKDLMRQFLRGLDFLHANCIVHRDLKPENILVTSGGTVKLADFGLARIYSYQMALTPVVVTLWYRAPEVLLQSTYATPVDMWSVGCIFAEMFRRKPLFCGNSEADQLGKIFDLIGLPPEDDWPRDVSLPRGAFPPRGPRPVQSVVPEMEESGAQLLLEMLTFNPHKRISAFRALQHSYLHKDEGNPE
UniProt P50613: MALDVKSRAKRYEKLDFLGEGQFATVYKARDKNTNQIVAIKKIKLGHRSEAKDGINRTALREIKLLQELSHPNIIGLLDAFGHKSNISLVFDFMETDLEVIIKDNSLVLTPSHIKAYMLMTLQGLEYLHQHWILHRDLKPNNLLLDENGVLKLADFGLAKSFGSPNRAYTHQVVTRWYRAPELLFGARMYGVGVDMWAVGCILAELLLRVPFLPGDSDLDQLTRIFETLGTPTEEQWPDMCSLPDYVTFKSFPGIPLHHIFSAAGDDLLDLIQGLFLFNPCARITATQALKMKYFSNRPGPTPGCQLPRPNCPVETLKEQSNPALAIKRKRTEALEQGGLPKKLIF
UniProt P50750, whole entry: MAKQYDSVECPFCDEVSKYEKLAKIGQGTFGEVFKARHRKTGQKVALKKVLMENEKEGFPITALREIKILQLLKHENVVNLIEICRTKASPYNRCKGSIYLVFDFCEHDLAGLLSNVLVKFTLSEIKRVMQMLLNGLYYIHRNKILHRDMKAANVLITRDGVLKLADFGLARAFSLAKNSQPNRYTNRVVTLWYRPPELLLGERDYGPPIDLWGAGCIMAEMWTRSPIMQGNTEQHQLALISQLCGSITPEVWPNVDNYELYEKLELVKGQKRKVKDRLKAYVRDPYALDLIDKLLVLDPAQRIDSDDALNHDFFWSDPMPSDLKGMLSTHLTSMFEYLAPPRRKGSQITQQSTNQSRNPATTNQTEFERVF

Experiments:
Conditions in all cases: K562; 2-18 h
[1] = molecular target: YES1 (UniProt P07947); experiment: number of time points (of 5) at which kinase-Nluc abundance scored as decreased, DMSO-normalised (count); higher = more persistent destabilization
[2] = molecular target: ZAK (UniProt Q9NYL2); experiment: as above
[3] = molecular target: ZAP70 (UniProt P43403); experiment: as above
[4] = molecular target: CDK4 (UniProt P11802); experiment: number of time points (of 4; 2 h point missing) at which kinase-Nluc abundance scored as decreased, DMSO-normalised (count); higher = more persistent destabilization
[5] = molecular target: CDK7 (UniProt P50613); experiment: as above
[6] = molecular target: CDK9 (UniProt P50750); experiment: as above

Measured: number of time points

N#Cc1ccc(-c2c(-c3ncn[nH]3)sc(N3CCOCC3)c2C#N)c(F)c1 (10 µM)
1: [5]
0: all other assays above

CC(=O)NCCc1c[nH]c2ccc(O)cc12 [N-Acetyl-5-hydroxytryptamine] (10 µM)
0: all assays above

C=C(F)C(=O)N1CCN(c2nc(OC[C@@H]3CCCN3C)nc3c2CCN(c2cccc4cccc(Cl)c24)C3)C[C@@H]1CC#N (2.5 µM)
0: all assays above

CCCCCCCC/C=C\CCCCCCCC(=O)NCC(=O)O [N-Oleoyl glycine] (10 µM)
0: all assays above

CC(CCc1ccccn1)(CCc1ccccn1)C(=O)c1ccccc1 (10 µM)
0: all assays above

[O-][n+]1cccc(-c2nc3c(Cl)cccc3cc2[C@@H](Nc2ncnc3cccnc23)C(F)(F)F)c1 [Seletalisib] (10 µM)
0: all assays above

O=C1NC(=O)C(c2cnc3ccccn23)=C1c1cn2c3c(cc(F)cc13)CN(C(=O)N1CCCCC1)CC2 (2.5 µM)
0: all assays above

Of the compounds above, two contain a carbonyl joined to an NH by a bond outside any ring.
CC(=O)NCCc1c[nH]c2ccc(O)cc12 [N-Acetyl-5-hydroxytryptamine] (10 µM)
0: all assays above

CCCCCCCC/C=C\CCCCCCCC(=O)NCC(=O)O [N-Oleoyl glycine] (10 µM)
0: all assays above

The listing continues.

O=C(c1ccc(Nc2nccc(-c3cc4ccccc4s3)n2)cc1)N1CCC(N2CCCC2)CC1 (2.5 µM)
0: all assays above

O=c1cc(-c2ccc(O)c(O)c2O)oc2ccccc12 (10 µM)
0: all assays above

O=C(Nc1ccc(Cl)cc1)C1CCCN(C(=O)c2cccc(-c3ccco3)c2)C1 (stereo not given) (2.5 µM)
0: all assays above

CC[C@H](Nc1ncnc2[nH]cnc12)c1oc2ccccc2c(=O)c1-c1cccc(F)c1 [Tenalisib] (10 µM)
0: all assays above

CC(C)(O)[C@@H]1CC[C@](C)([C@H]2[C@@H](O)C[C@@]3(C)[C@@H]4C[C@H](O[C@@H]5O[C@H](CO)[C@@H](O)[C@H](O)[C@H]5O)[C@H]5C(C)(C)[C@@H](O[C@@H]6OC[C@@H](O)[C@H](O)[C@H]6O[C@@H]6O[C@H](CO)[C@@H](O)[C@H](O)[C@H]6O)CC[C@@]56C[C@@]46CC[C@]23C)O1 [Astragaloside VI] (10 µM)
0: all assays above

CCc1c(C)sc(NC(=S)NC(=O)c2ccc(Cl)cc2)c1C(N)=O (10 µM)
0: all assays above

CCN1C(=O)CNc2ncc(-c3ccc(-c4nc[nH]n4)nc3C)nc21 [CC-115 (hydrochloride)] (2.5 µM)
4: [5]
0: [3] | [4]
1: all other assays above

By substructure, the entries above containing a cyano group.
N#Cc1ccc(-c2c(-c3ncn[nH]3)sc(N3CCOCC3)c2C#N)c(F)c1 (10 µM)
1: [5]
0: all other assays above

C=C(F)C(=O)N1CCN(c2nc(OC[C@@H]3CCCN3C)nc3c2CCN(c2cccc4cccc(Cl)c24)C3)C[C@@H]1CC#N (2.5 µM)
0: all assays above

(more compounds)

COC(=O)N[C@@H](C)CNc1nccc(-c2cn(C(C)C)nc2-c2cc(Cl)cc(NS(C)(=O)=O)c2F)n1 [Encorafenib] (10 µM)
0: all assays above

c1cc(-c2cnn3cc(-c4ccc(N5CCNCC5)cc4)cnc23)c2cccnc2c1 (2.5 µM)
1: [5]
0: all other assays above

O=C(Nc1ccc(Cl)c(Cl)c1)Nc1ccc2nnsc2c1 (10 µM)
0: all assays above

Cc1cc2cc(Oc3ccnc(Nc4cccc(CS(=O)(=O)NCCN(C)C)c4)n3)ccc2[nH]1 [Sulfatinib] (10 µM)
2: [5]
0: all other assays above

Cc1ccc(-c2ccc3c(ccc4sc5c(c43)NC[C@@H](C)NC5=O)n2)cn1 (10 µM)
0: all assays above

NC(=O)c1ccc(-c2cnn3ccc(NCc4cccnc4)nc23)cc1 (2.5 µM)
0: all assays above

CC(C)n1cnc2c(Nc3cccc(Cl)c3)nc(NCCO)nc21 (10 µM)
0: all assays above

Nc1cc(C(F)(F)F)c(-c2nc(N3CCOCC3)nc(N3CCOCC3)n2)cn1 [Bimiralisib] (10 µM)
3: [5]
0: all other assays above

COc1ccc2c(Oc3ccc(NC(=O)c4c(C)n(CC(C)(C)O)n(-c5ccccc5)c4=O)cc3F)ccnc2c1 (2.5 µM)
2: [5]
0: all other assays above

C=CC(=O)N1CCC(Oc2cc3c(Nc4ccc(Cl)c(Cl)c4F)ncnc3cc2OC)CC1 [Poziotinib] (2.5 µM)
0: all assays above

COc1ccc2c(=O)c(-c3ccccc3)coc2c1 [7-Methoxyisoflavone] (10 µM)
0: all assays above

O=C1NC(=O)/C(=C/c2ccc(-c3ccc(F)cc3O)o2)S1 (10 µM)
0: all assays above

Cc1cc(Nc2nc(N[C@@H](C)c3ncc(F)cn3)ncc2Cl)[nH]n1 (10 µM)
0: all assays above

CC(C)C[C@H](NC(=O)[C@H](CCCCN)NC(=O)[C@H](CO)NC(=O)[C@@H](N)CC(C)C)C(N)=O [LSKL, Inhibitor of Thrombospondin (TSP-1) (TFA)] (10 µM)
0: all assays above

O=c1ccc2ccc(O)c(O)c2o1 [Daphnetin] (10 µM)
0: all assays above

C[C@H]1Cc2ccccc2N1C(=O)Cc1nc(N2CCOCC2)cc(=O)[nH]1 (2.5 µM)
0: all assays above

CC(C)c1ccc(CC(=O)N2CCN(c3ccc(C#N)nn3)CC2)cc1 (10 µM)
0: all assays above

CC[C@@H]1C(=O)N(C)c2cnc(Nc3ccc(C(=O)N[C@H]4CC[C@H](N5CCN(CC6CC6)CC5)CC4)cc3OC)nc2N1C(C)C [Volasertib] (2.5 µM)
0: all assays above

CC(C)Oc1ccc(-c2cnc3c(-c4ccnc5ccccc45)cnn3c2)cc1 (10 µM)
0: all assays above

O=C(CCCCCn1cc(Nc2ncc(Cl)c(Nc3ccc(Cl)cc3)n2)cn1)NO (2.5 µM)
0: all assays above

CN1C(=O)NC(Cc2c[nH]c3c(Cl)cccc23)C1=O (racemic) [Necrostatin 2 (racemate)] (10 µM)
0: all assays above

Cc1cccc(-c2[nH]ncc2-c2ccc3ncccc3n2)n1 (10 µM)
0: all assays above

OCCN(CCO)c1ccc(C(c2ccc(Cl)cc2)c2ccc(N(CCO)CCO)cc2)cc1 (10 µM)
4: [6]
2: [1] | [2]
3: [5]
0: [3] | [4]

CSc1ccc(CN2CCCC(Nc3ccc4[nH]ncc4c3)C2)cc1 (stereo not given) [Rho-Kinase-IN-1] (10 µM)
0: all assays above

c1ccc(-c2oc3ncnc(NC[C@@H]4CCCO4)c3c2-c2ccccc2)cc1 (2.5 µM)
0: all assays above

O=C(Nc1cccc(-c2nncn2C2CC2)c1)c1cc(-n2cnc(C3CC3)c2)ccn1 (10 µM)
0: all assays above

COc1ccc(CCNc2ncc3c(=O)n(-c4cccc(F)c4)c(=O)[nH]c3n2)cc1OC (2 µM)
0: all assays above

Nc1cccc(S(=O)(=O)N2CCCN(S(=O)(=O)c3ccc4c(c3)OCCO4)CC2)c1 (10 µM)
0: all assays above

CC1=C(C(=O)Nc2ccc3[nH]ncc3c2)C(c2ccc(F)cc2)NC(=O)N1 (stereo not given) (10 µM)
0: all assays above

COc1ccccc1/C=C1\C(=O)Nc2ccccc21 (10 µM)
0: all assays above

CCCCNC(=N)NC(=N)N [Buformin (hydrochloride)] (2.5 µM)
0: all assays above
